Results taken from PubChem BioAssay AID624297 (National Center for Advancing Translational Sciences (NCATS), 2012).
The campaign covered roughly 340,000 compounds. About 6,200 (1.8%) were called active. Inconclusive means that the source gave no clear call. Such entries were picked first, then a sample of the others. The call rests on the fitted dose curve; in most records, active means well fitted activation curve with a large enough effect; inconclusive means small, poorly fitted or top-dose-only effect; inactive means no such curve, though single readings can be large or run the other way. Potencies of inconclusive entries are doubtful fits and often do not repeat.

Test: A quantitative high throughput screen for small molecules that induce DNA re-replication in SW480 colon adenocarcinoma cells. Further: nearly all actives have a fitted effect of over 55% in size. On re-replication activation: % of control where 0% means no effect.
Settings: Hoechst DNA content imaging, 48 h; re-replication activation: at 46.1 µM (top of the series)
In short: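 Image-based read-out: total Hoechst fluorescence of nuclei (405 nm excitation, 500-530 nm emission), with hits raising the fraction of high-intensity nuclei. SW480 colon cells incubated 48 hr with compounds at 37 C.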
Potency means the concentration at half of the fitted maximal effect.

Row | Structure (SMILES) | Potency | re-replication activation
1 | Cc1ccc(S(=O)(=O)N2CCCC(C(=O)NCCCN3CCCCC3C)C2)cc1 (stereo not given) | inactive | –
2 | CCOC(=O)c1c(C)[nH]c(C)c1C(=O)COC(=O)c1cc2ccccc2cc1O | inconclusive: 29.1 µM [activator, single point] | –
3 | Cc1cc(Oc2ccccc2F)nc(NCc2ccccc2)n1 | inconclusive: 20.6 µM [activator, single point] | –
4 | CSc1ccccc1NC(=O)CN1CCN(S(=O)(=O)c2ccccc2[N+](=O)[O-])CC1 | inactive | –
5 | COc1ccccc1C(=O)OCCc1ccccc1 | inactive | –
6 | Cc1ccc(NS(=O)(=O)c2cccc(C(=O)N3CCCCCCC3)c2)cc1 | inactive | –
7 | Cc1ccc(C(=O)N/C(=C\c2ccc(-c3ccc([N+](=O)[O-])cc3)o2)C(=O)NC2CCS(=O)(=O)C2)cc1 (stereo not given) | inconclusive: 16.4 µM [activator, single point] | –
8 | CCn1nc(C(=O)OCC(=O)Nc2nc(-c3ccc(OC)cc3)cs2)c2ccccc2c1=O | inconclusive: 18.4 µM [activator, single point] | –
9 | COCCNC(=O)c1nc2ccccc2s1 | inconclusive: 18.4 µM [activator, partial curve, poor fit] | –
10 | COc1cc(O)c(C=Nc2ccccc2NS(=O)(=O)c2ccc(C)cc2)c(OC)c1 | inconclusive: 29.1 µM [activator, partial curve, poor fit] | –
11 | COc1ccc(-n2cc(CNCCCn3ccnc3)c(-c3ccccc3Cl)n2)cc1 | inconclusive: 20.6 µM [activator, single point] | –
12 | CC(=NO)C1CCC2C3CCC4=CC(=NO)CCC4(C)C3C(O)CC12C (stereo not given) | inactive | –
13 | Cc1ccc(C2N(c3ccccc3)C(=O)N3CCCN23)cc1 (stereo not given) | active: 0.517 µM | –
14 | Cc1ccc(Nc2ncc(C(=O)NCCCN3CCN(C)CC3)c3ccccc23)cc1Cl | inconclusive: 16.4 µM [activator, single point] | –
15 | COc1ccc(Sc2nnc(Cc3ccccc3)c3ccccc23)cc1 | inconclusive: 10.3 µM [activator, partial curve] | –
16 | Cc1c(C(=O)OCCOc2ccccc2)[nH]c2c1C(=O)CCC2 | inactive | –
17 | O=C(CNC(=O)C1CCCCC1)OCC(=O)c1ccc(Br)cc1 | inconclusive: 2.06 µM [activator, partial curve, poor fit] | –
18 | Cc1ccc(S(=O)(=O)N2CCCN(S(=O)(=O)c3ccc4ccccc4c3)CC2)cc1 | inconclusive: 29.1 µM [activator, partial curve, poor fit] | –
19 | CN(/N=C\c1ccc(O)c(O)c1)c1nc(-c2ccccc2)cc(-c2ccccc2)n1 | active: 18.4 µM | –
20 | O=C(NCC1CCCN1S(=O)(=O)c1cccs1)c1ccc([N+](=O)[O-])cc1 (stereo not given) | inconclusive: 29.1 µM [activator, single point] | –
21 | O=C(Nc1ccncc1)C1(c2ccccc2)CCCC1 | inconclusive: 29.1 µM [activator, single point] | –
22 | COC(=O)c1cccc(S(=O)(=O)N(Cc2ccco2)Cc2cc3ccc(OC)cc3[nH]c2=O)c1 | inactive | –
23 | COc1cccc(NC(=O)CN(C)C(=O)CCCc2nc3ccccc3s2)c1 | inactive | –
24 | O=C(NC1CCCCCCC1)c1cccc(Cl)c1 | inconclusive: 14.6 µM [activator, partial curve, poor fit] | –

Row | Structure (SMILES) | Potency | re-replication activation
25 | CCOc1cccc2sc(N(CCCN(C)C)C(=O)c3ccc(S(=O)(=O)N4CCc5ccccc5C4)cc3)nc12 | inconclusive: 13 µM [activator, partial curve] | –
26 | CCOc1ncccc1C(=O)OCC(=O)Nc1cc(S(=O)(=O)N2CCOCC2)ccc1C | inconclusive: 0.731 µM [activator, full curve, poor fit] | –
27 | COc1cccc(-n2nnnc2SCC(=O)N2CCCc3ccccc32)c1 | active: 11.6 µM | –
28 | CO/N=C(\CCC(=O)O)c1cccs1 | inconclusive: 29.1 µM [activator, single point] | –
29 | O=C(NCCC1CCCCN1S(=O)(=O)c1cccs1)C(=O)Nc1ccc(F)cc1F (stereo not given) | active: 11.2 µM | –
30 | O=C(Nc1cccc(-c2nc3ccccc3s2)c1)c1ccc2c(c1)OCO2 | inconclusive: 29.1 µM [activator, single point] | –
31 | CC(C)=CCC/C(C)=C/CNC(=O)C[C@H]1C[C@H](C(=O)N2CCOCC2)[C@@]2(C)c3[nH]c4cc(CCC(=O)N(C)C)ccc4c3CCN2C1=O | inconclusive: 6.51 µM [activator, partial curve, poor fit] | –
32 | O=C(CSc1nc(=O)n2ccccc2n1)NCCc1ccccc1 | inconclusive: 0.0046 µM [activator, full curve, poor fit] | –
33 | CCN(CC)C(=O)CN(c1cccc([N+](=O)[O-])c1)S(=O)(=O)c1ccccc1 | inconclusive: 1.3 µM [activator, full curve, poor fit] | –
34 | COc1ccccc1-c1ccc(=O)n(CC(=O)NCc2cccs2)n1 | inconclusive: 11.6 µM [activator, partial curve, poor fit] | –
35 | O=C(O)Cc1sc(N/N=C\c2ccncc2)nc1-c1ccccc1 | inactive | –
36 | CC(=O)N/N=C/c1ccccc1OCCOc1cccc(C)c1 | inconclusive: 29.1 µM [activator, single point] | –
37 | O=C(c1ccccc1F)N1CCN(Cc2nc3sc4c(c3c(=O)[nH]2)CCCC4)CC1 | inactive | –
38 | CN(CC(=O)Nc1c(Cl)cccc1Cl)C(=O)CC1Sc2ccccc2NC1=O (stereo not given) | inactive | –
39 | COc1ccc(CNC(=O)C(C)OC(=O)c2cccc(N(C)C)c2)cc1 (stereo not given) | inconclusive: 18.4 µM [activator, single point] | –
40 | N#C/C(=C(/O)COC(=O)CCC1CCCCC1)c1nc2ccccc2[nH]1 | inconclusive: 29.1 µM [activator, single point] | –
41 | COC(=O)N1CCN(c2ccc(Cl)c(Cl)c2)CC1 | inactive | –
42 | O=C(Nc1cccc(S(=O)(=O)NC2=NCCC2)c1)c1cc(-c2ccco2)nc2ccccc12 | inactive | –
43 | CCOC(=O)Cn1c2c(c(=N)c3c1CCC3)CCC2 | – | inactive: -3.14% [at 9.22 µM]
44 | S=C(NCc1cccs1)Nc1cc(Cl)cc(Cl)c1 | inconclusive: 29.1 µM [activator, single point] | –
45 | CC1CCCN(C(=O)C2CCC(CNc3c(N4CCCCC4)c(=O)c3=O)CC2)C1 (stereo not given) | inactive | –
46 | COc1ccc(COn2nnc3ccc(S(=O)(=O)N4CCOCC4)cc32)cc1F | inconclusive: 9.2 µM [activator, partial curve, poor fit] | –
47 | O=C(O)c1cccc(-c2ccc(/C=N/n3cnnc3)o2)c1 | inactive | –
48 | CCOC(=O)N1CCN(C(=O)CN2C(=O)COc3ccc(C(C)(C)C)cc32)CC1 | inactive | –

Row | Structure (SMILES) | Potency | re-replication activation
49 | O=[N+]([O-])c1ccc(Sc2nnnn2-c2ccccc2)nc1 | active: 6.51 µM | –
50 | O=C(CSc1nnnn1C1CC1)Nc1ccc(S(=O)(=O)N2CCOCC2)cc1 | inconclusive: 23.1 µM [activator, single point] | –
51 | CCOc1ccccc1OCCCC(=O)N1CCN(S(=O)(=O)c2ccc(C)cc2)CC1 | inactive | –
52 | c1ccc(CN2CCN(c3nc(-c4ccccn4)nc4ccccc34)CC2)cc1 | inactive | –
53 | N#C/C(=C\c1cccnc1)C(=O)Nc1cccc2ccccc12 | inconclusive: 29.1 µM [activator, single point] | –
54 | CCc1nnc(NC(=O)CSc2nccn2-c2cc(C)cc(C)c2)s1 | inconclusive: 29.1 µM [activator, partial curve, poor fit] | –
55 | O=[N+]([O-])c1ccc(O)c(/C=N/Nc2nn[nH]n2)c1 | inactive | –
56 | NC(=O)/C(=C\c1ccccc1)NC(=O)/C=C/c1ccccc1 | inconclusive: 29.1 µM [activator, single point] | –
57 | CCOC(=O)Nc1ccc2c(CN3CCN(S(=O)(=O)c4ccccc4F)CC3)cc(=O)oc2c1 | inactive | –
58 | CCOC(=O)C(NC(=O)c1ccc(OC)cc1)(N1CCCC1=O)C(F)(F)F (stereo not given) | inconclusive: 16.4 µM [activator, partial curve, poor fit] | –
59 | O=Cc1ccc(OCC(=O)NC(=O)NC2CCCCC2)cc1 | inactive | –
60 | CN1CCC(N(C)C(=S)NC(=O)c2cc(-c3cccc(Br)c3)nc3ccccc23)CC1 | inconclusive: 29.1 µM [activator, single point] | –
61 | CC(C)(C)C(=O)/C=C(\N)c1ccccn1 | inconclusive: 32.6 µM [activator, partial curve, poor fit] | –
62 | O=C(CCN1CCN(Cc2ccccc2)CC1)NNC(=O)Nc1cccc([N+](=O)[O-])c1 | inconclusive: 29.1 µM [activator, single point] | –
63 | Cc1ccc(N2C(=O)N3[C@H]4c5ccccc5OC[C@@H]4[C@@H](c4ccccc4)[C@@]3(C)C2=O)cc1 | inconclusive: 18.4 µM [activator, partial curve, poor fit] | –
64 | O=c1c(-c2c(O)cc(O)c3c2O[C@H](c2ccc(O)cc2)CC3)c(-c2ccc(O)cc2)oc2cc(O)cc(O)c12 | inactive | –
65 | Cc1ccc(/C=C2/SC(=S)N(CC(=O)Nc3ncc(Cc4ccc(C)cc4)s3)C2=O)cc1 | inconclusive: 23.1 µM [activator, partial curve, poor fit] | –
66 | CCN(CC)C(=O)C1CCCN(c2ncnc3c2cnn3-c2ccc(Cl)cc2)C1 (stereo not given) | inactive | –
67 | CCCc1nnc(NC(=O)CCC(=O)Nc2ccc(Br)cc2)s1 | inactive | –
68 | Cn1nnnc1Sc1ncnc2scc(-c3cccc(C(F)(F)F)c3)c12 | inconclusive: 3.26 µM [activator, partial curve, poor fit] | –
69 | COc1cc(/C=N/N2CCCCC2)cc(OC)c1O | inactive | –
70 | Cc1ccc(CC(=O)NCc2ccc(F)cc2)cc1 | active: 18.4 µM | –

Three compounds already listed, arranged by heavy-atom count, ascending.
Row | Structure (SMILES) | Potency | re-replication activation
9 | COCCNC(=O)c1nc2ccccc2s1 | inconclusive: 18.4 µM [activator, partial curve, poor fit] | –
16 | Cc1c(C(=O)OCCOc2ccccc2)[nH]c2c1C(=O)CCC2 | inactive | –
38 | CN(CC(=O)Nc1c(Cl)cccc1Cl)C(=O)CC1Sc2ccccc2NC1=O (stereo not given) | inactive | –
